From patent US20030119727A1 (Genentech, published 2003) come the findings set out here.

The chains behind the UniProt entries cited, without tags or fusion partners. Where a name states a change or a piece, a line headed by the entry shows the natural chain unless it says otherwise.
UniProt P08709: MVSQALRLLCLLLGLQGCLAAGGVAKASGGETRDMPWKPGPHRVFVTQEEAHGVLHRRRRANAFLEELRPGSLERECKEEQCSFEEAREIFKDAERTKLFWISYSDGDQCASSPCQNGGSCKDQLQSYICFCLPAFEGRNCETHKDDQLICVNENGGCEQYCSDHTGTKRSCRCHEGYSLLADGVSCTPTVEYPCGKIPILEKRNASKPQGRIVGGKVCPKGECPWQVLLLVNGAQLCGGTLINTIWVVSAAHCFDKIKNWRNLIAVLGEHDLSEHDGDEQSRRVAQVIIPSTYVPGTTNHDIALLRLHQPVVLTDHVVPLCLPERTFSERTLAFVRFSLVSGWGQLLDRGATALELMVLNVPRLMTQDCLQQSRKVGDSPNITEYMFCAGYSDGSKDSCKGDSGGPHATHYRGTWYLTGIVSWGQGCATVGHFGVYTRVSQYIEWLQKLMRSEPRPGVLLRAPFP
UniProt P13726: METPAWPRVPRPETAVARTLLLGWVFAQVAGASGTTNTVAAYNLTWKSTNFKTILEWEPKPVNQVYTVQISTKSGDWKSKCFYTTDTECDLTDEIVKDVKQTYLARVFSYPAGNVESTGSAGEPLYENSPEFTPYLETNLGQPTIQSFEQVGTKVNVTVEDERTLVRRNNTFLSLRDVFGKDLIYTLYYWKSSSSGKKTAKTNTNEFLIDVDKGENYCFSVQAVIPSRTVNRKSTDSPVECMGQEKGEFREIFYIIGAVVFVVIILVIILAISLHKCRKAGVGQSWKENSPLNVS

Results are given in words; binding and its absence hold for the method and conditions named. Some entries that bind do so weakly or less than the wild type.

Assay [1] addresses recombinant human Factor VIIa (human) (UniProt P08709). Put plainly: FVIIa Binding ELISA, competition with TF147b. For orientation: ELISA stands for enzyme-linked immunosorbent assay.
In assay [2] the target is covalently active site blocked TF-FVIIa (active site of FVIIa alkylated with biotinylated EGR chloromethylketone) (human) (UniProt P13726+P08709). Put plainly: phage binding to coated wells.

On to ALCDNPRIDRWYCQFVEG [peptide TF151], for which the binding entry in assay [1] is “binds”. For EAALCDDPRLDRWYCIFAGE [Phage bearing the TF56 peptide sequence … (Pool E clone, polyvalent phage display)], in assay [2], the binding entry is “binds”.
